The test system of this assay is P388 leukemia ip, CD2F1 mice, survival T/C. As to the kind of experiment: NCI In Vivo Anticancer Drug Screen. Data for tumor model P388 Leukemia (intraperitoneal) in CD2F1 (CDF1) mice. The note with it: T/C endpoint: median survival time, higher T/C = longer survival.
Setting [1] is: dose: 100.0 mg/kg/injection, schedule: Q01DX005 (ip), vehicle: Klucel (hydroxypropylcellulose) (HPC).
[2] abbreviates: dose: 200.0 mg/kg/injection, schedule: Q01DX005 (ip), vehicle: Klucel (hydroxypropylcellulose) (HPC).

The list is a part of this screen's results and no random one: it is rich in T/C values a quarter to a half above the control, in often repeated tests (any T/C) and in doses without a T/C. Further doses and runs are listed elsewhere. T/C: endpoint of the treated group in % of that of the vehicle group. Some entries give survivors of the animals treated and no T/C: the source holds a T/C of zero for them, seemingly a mark for toxic or unscored doses. Some survivor counts are full or nearly so, which does not show that the dose was tolerated: the source hardly ever lists a survival T/C far under the control, and the zero likely stands for such cases as well. Counts of survivors are from the toxicity check (mostly the fifth day) where no day follows; animals may have died later. Schedule codes are those of the source, read here as Q, the interval in days (D) or hours (H), X, the number of doses. Some doses were run more than once; their values stand side by side, smallest first. Some structures stand for samples that the source files as different forms (salt, stereo form or complex); doses refer to the form tested. Marks such as (2×) stand for listed records that agree. Where survival is the endpoint, this PubChem deposit counts one and a half times the control or more as active, and values a quarter to a half above the control carry no call in these data; other NCI protocols may use other cut-offs. Some T/C values carry the count of animals alive at the toxicity check (mostly the fifth day); without a count, all were alive then.

On to `CCC1(O)CC2CN(CCc3c([nH]c4ccccc34)C(C(=O)OC)(c3cc4c(cc3OC)N(C)C3C(O)(C(N)=O)C(O)C5(CC)C=CCN6CCC43C65)C2)C1` (stereo unspecified) (tested in a mixture with another compound), for which the T/C reads like this: (dose: 0.06 mg/kg/injection, schedule: Q01DX009 (ip), vehicle: water) 145 % of control; (dose: 0.06 mg/kg/injection, schedule: Q04DX003 (ip), vehicle: water) 125 % of control; (dose: 0.12 mg/kg/injection, schedule: Q04DX003 (ip), vehicle: water) 140 % of control; (dose: 0.13 mg/kg/injection, schedule: Q01DX009 (ip), vehicle: water) 126 % of control; (dose: 0.25 mg/kg/injection, schedule: Q04DX003 (ip), vehicle: saline, evaluated on day 5) 113 and 150 % of control; (dose: 0.25 mg/kg/injection, schedule: Q04DX003 (ip), vehicle: saline, evaluated on day 45) 183 % of control. Further, the T/C is, setting by setting: (dose: 0.25 mg/kg/injection, schedule: Q04DX003 (ip), vehicle: saline, evaluated on day 60) 166 % of control; (dose: 0.36 mg/kg/injection, schedule: Q01DX009 (ip), vehicle: water) 132 % of control; (dose: 0.38 mg/kg/injection, schedule: Q04DX003 (ip), vehicle: saline) 148 % of control; (dose: 0.65 mg/kg/injection, schedule: Q04DX003 (ip), vehicle: clinical formulation) 148 % of control; (dose: 0.87 mg/kg/injection, schedule: Q04DX003 (ip), vehicle: saline, evaluated on day 5) 124 and 203 % of control; (dose: 0.87 mg/kg/injection, schedule: Q04DX003 (ip), vehicle: saline, evaluated on day 10) 120 % of control. Also, the T/C runs as follows: (dose: 0.87 mg/kg/injection, schedule: Q04DX003 (ip), vehicle: saline, evaluated on day 60) 215 % of control; (dose: 1.0 mg/kg/injection, schedule: Q01DX009 (ip), vehicle: water) 133 % of control; (dose: 1.3 mg/kg/injection, schedule: Q04DX003 (ip), vehicle: saline, evaluated on day 5) 135 and 222 % of control; (dose: 1.3 mg/kg/injection, schedule: Q04DX003 (ip), vehicle: saline, evaluated on day 10) 129 % of control; (dose: 1.3 mg/kg/injection, schedule: Q04DX003 (ip), vehicle: saline, evaluated on day 60) 206 % of control; (dose: 2.0 mg/kg/injection, schedule: Q04DX003 (ip), vehicle: saline, evaluated on day 5) 136 and 222 % of control. Further, the T/C by setting is: (dose: 2.0 mg/kg/injection, schedule: Q04DX003 (ip), vehicle: saline, evaluated on day 10) 127 % of control [8 of 9 alive]; (dose: 2.0 mg/kg/injection, schedule: Q04DX003 (ip), vehicle: saline, evaluated on day 60) 191, 232, 274 % of control; (dose: 3.0 mg/kg/injection, schedule: Q04DX003 (ip), vehicle: saline) 134 % of control [8 of 9 alive]. The survivor count was 6 of 6 (dose: 1.0 mg/kg/injection, schedule: Q04DX003 (ip), vehicle: saline); 5 of 6 (dose: 2.0 mg/kg/injection, schedule: Q04DX003 (ip), vehicle: saline); 7 of 8 and 6 of 6 (dose: 4.0 mg/kg/injection, schedule: Q04DX003 (ip), vehicle: saline); 7 of 8 (dose: 5.0 mg/kg/injection, schedule: Q04DX003 (ip), vehicle: clinical formulation).

Consider `S=C(Oc1ccccc1)SSC(=S)Oc1ccccc1`, for which the survivor count is, setting by setting: (dose: 200.0 mg/kg/injection, schedule: Q04DX003 (ip), vehicle: DMSO) 0 of 5; (dose: 400.0 mg/kg/injection, schedule: Q04DX003 (ip), vehicle: DMSO) 0 of 5.

With `CC(C)N=Cc1ccccc1O.CC(C)N=Cc1ccccc1O.[Cu]`, the survivor count (dose: 100.0 mg/kg/injection, schedule: Q04DX003 (ip), vehicle: saline with Tween-80) is listed as 5 of 6.

In the case of `CCCCCCCCCCCCCCCC[N+](C)(C)CCBr`, the survivor count reads like this: (dose: 12.5 mg/kg/injection, schedule: Q01DX009 (ip), vehicle: saline with Tween-80) 5 of 6; (dose: 25.0 mg/kg/injection, schedule: Q01DX009 (ip), vehicle: saline with Tween-80) 0 of 6, 2 of 6, 3 of 6; (dose: 50.0 mg/kg/injection, schedule: Q01DX009 (ip), vehicle: saline with Tween-80) 0 of 6 (2×).

For the compound `CC(N)P(=O)(O)O` (stereo unspecified), the survivor count by setting is: (dose: 25.0 mg/kg/injection, schedule: Q01DX009 (ip), vehicle: saline) 5 of 6; (dose: 50.0 mg/kg/injection, schedule: Q01DX009 (ip), vehicle: saline) 6 of 6.

In the case of `CCOC(=O)/C=C(\C)SC1=CC(=O)c2ccccc2C1=O`, the survivor count runs as follows: (dose: 100.0 mg/kg/injection, schedule: Q01DX009 (ip), vehicle: saline with Tween-80) 3 of 6; (dose: 200.0 mg/kg/injection, schedule: Q01DX009 (ip), vehicle: saline with Tween-80) 1 of 6.

Turning to `NC(=O)NC(=O)/C=C/C(=O)OCCCl`, the survivor count is 4 of 6 under setting [1] and 0 of 6 under setting [2].

Take `CC1CN1P(=S)(N1CCCC1)N1CC1C` (stereo unspecified): the T/C is 136 % of control (dose: 16.0 mg/kg/injection, schedule: Q01DX009 (ip), vehicle: saline with Tween-80); 145 % of control (dose: 32.0 mg/kg/injection, schedule: Q01DX009 (ip), vehicle: saline with Tween-80); 130 % of control (dose: 32.0 mg/kg/injection, schedule: Q04DX003 (ip), vehicle: saline with Tween-80); 131 % of control (dose: 44.0 mg/kg/injection, schedule: Q01DX009 (ip), vehicle: saline with Tween-80); 145 % of control (dose: 64.0 mg/kg/injection, schedule: Q01DX009 (ip), vehicle: saline with Tween-80); 135 % of control (dose: 128.0 mg/kg/injection, schedule: Q04DX003 (ip), vehicle: saline with Tween-80). The T/C (dose: 132.0 mg/kg/injection, schedule: Q04DX003 (ip), vehicle: saline with Tween-80) is 145 % of control. The survivor count reads like this: (dose: 128.0 mg/kg/injection, schedule: Q01DX009 (ip), vehicle: saline with Tween-80) 6 of 6; (dose: 256.0 mg/kg/injection, schedule: Q01DX009 (ip), vehicle: saline with Tween-80) 6 of 6; (dose: 300.0 mg/kg/injection, schedule: Q04DX003 (ip), vehicle: saline with Tween-80) 6 of 6.

As for `NNC(=O)CNc1ccccc1Br`, the survivor count (dose: 240.0 mg/kg/injection, schedule: Q01DX005 (ip), vehicle: Klucel (hydroxypropylcellulose) (HPC)) is on record as 0 of 6.

In the case of `Cc1cc(O)c2c(O)c(-c3ccc4cc(C)cc(O)c4c3O)ccc2c1`, where the note is “dose: 200.0 mg/kg/injection, schedule: Q01DX009 (ip), vehicle: saline”, the survivor count is on record as 4 of 6.

On to `CCCCCCNc1nc(NCCCCCC)c2[nH]c(NCCCCCC)nc2n1`, for which the T/C is 131 % of control (dose: 50.0 mg/kg/injection, schedule: Q01DX005 (ip), vehicle: saline with Tween-80); 127 and 129 % of control (dose: 100.0 mg/kg/injection, schedule: Q01DX005 (ip), vehicle: saline with Tween-80); 125 and 127 % of control (dose: 200.0 mg/kg/injection, schedule: Q01DX005 (ip), vehicle: saline with Tween-80); 127 % of control (dose: 400.0 mg/kg/injection, schedule: Q01DX005 (ip), vehicle: saline with Tween-80).

As to `CCN(CC)c1ccc(C(=N)c2ccc(N(C)C)cc2)cc1`, the survivor count is, setting by setting: under setting [1], 0 of 5; under setting [2], 0 of 5.

For the compound `CC(=O)O.CC(=O)O.CC[OH+]CC[OH+]CC[OH+]C1CCCC2CCC[N-]C21.[Zn]` (stereo unspecified), the T/C is 118 and 120 % of control (dose: 50.0 mg/kg/injection, schedule: Q01DX005 (ip), vehicle: Klucel (hydroxypropylcellulose) (HPC), evaluated on day 20); 110 and 114 % of control [5 of 6 alive] (dose: 50.0 mg/kg/injection, schedule: Q01DX005 (ip), vehicle: Klucel (hydroxypropylcellulose) (HPC), evaluated on day 30). Moreover, the survivor count under setting [1] is 0 of 6 (2×) and the survivor count under setting [2] was 0 of 6.

As to `CNC(=O)Nc1ccnc(=O)[nH]1`, the T/C under setting [1] was 126 % of control and the T/C under setting [2] is 137 % of control [5 of 6 alive].

The record behind these values is PubChem BioAssay AID330 (DTP/NCI, 2004).
